In publication PMC5227109:
Results are given in words; binding and its absence hold for the method and conditions named. Binding seen in cells or lysates may run through a third protein. Some results given as binding are weak or reduced against the parent protein; the word gives no strength.

By UniProt entry, the sequences of proteins in these tests, tags left out. Where a name states a change or a piece, a line headed by the entry shows the natural chain unless it says otherwise.
UniProt P32908: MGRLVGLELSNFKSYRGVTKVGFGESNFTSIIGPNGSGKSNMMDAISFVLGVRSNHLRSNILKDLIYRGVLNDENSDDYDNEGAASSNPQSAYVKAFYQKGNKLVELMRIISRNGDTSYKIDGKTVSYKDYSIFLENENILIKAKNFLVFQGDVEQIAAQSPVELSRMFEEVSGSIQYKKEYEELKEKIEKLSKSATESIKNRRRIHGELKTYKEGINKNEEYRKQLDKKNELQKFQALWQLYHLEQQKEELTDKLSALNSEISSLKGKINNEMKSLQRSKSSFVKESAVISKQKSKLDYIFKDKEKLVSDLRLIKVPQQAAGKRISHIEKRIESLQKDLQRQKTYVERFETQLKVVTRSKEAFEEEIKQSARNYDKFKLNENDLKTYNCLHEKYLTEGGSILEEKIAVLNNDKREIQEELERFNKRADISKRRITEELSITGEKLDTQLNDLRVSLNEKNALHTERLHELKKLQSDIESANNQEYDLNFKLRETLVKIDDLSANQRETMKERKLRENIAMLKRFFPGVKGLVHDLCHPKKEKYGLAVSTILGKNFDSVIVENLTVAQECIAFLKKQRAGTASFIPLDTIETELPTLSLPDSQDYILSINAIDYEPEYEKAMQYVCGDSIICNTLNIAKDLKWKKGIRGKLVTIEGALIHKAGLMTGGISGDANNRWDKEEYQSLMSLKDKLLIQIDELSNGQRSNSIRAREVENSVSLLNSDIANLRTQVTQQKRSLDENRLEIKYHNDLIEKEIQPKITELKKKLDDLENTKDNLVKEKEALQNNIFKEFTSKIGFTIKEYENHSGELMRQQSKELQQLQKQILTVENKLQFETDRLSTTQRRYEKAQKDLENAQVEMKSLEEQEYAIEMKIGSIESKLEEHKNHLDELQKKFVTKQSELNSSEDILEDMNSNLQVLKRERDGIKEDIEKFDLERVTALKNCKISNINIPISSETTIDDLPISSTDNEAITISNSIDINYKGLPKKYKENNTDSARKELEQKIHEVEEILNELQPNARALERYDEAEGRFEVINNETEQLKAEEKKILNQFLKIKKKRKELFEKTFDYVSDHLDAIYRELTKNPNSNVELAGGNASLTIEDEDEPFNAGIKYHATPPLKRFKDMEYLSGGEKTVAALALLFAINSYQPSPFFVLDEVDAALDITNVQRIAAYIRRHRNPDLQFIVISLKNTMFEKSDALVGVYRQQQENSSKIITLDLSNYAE
UniProt P47037: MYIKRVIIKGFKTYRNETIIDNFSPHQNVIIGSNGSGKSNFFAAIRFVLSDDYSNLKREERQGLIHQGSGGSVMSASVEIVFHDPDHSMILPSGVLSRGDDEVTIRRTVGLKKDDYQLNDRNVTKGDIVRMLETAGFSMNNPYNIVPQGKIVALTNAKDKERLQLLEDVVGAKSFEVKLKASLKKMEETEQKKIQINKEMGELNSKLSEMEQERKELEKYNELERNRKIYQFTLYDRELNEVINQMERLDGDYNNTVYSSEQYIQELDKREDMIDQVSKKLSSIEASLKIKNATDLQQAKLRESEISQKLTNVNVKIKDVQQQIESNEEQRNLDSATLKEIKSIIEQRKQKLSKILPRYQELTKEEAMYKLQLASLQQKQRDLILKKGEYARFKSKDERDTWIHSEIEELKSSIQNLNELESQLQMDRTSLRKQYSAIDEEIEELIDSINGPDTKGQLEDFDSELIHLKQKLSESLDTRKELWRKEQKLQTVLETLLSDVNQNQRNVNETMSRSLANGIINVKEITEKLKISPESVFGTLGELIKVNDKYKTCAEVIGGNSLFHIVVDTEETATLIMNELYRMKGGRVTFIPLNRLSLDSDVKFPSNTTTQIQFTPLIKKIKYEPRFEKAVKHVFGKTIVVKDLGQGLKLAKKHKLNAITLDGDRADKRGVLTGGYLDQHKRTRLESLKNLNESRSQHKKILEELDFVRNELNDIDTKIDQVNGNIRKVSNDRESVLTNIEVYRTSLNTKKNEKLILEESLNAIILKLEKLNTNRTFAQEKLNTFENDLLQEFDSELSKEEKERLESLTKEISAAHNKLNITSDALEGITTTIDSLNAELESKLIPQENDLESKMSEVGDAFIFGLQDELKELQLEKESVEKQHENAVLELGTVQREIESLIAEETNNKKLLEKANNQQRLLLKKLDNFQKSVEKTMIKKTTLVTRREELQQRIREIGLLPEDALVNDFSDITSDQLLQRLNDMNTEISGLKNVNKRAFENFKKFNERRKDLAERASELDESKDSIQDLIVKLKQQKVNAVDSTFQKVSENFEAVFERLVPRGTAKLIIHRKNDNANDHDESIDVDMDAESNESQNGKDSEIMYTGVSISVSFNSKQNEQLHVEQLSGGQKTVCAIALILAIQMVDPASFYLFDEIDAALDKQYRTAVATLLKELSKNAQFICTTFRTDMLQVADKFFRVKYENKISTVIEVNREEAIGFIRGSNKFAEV
UniProt Q12158: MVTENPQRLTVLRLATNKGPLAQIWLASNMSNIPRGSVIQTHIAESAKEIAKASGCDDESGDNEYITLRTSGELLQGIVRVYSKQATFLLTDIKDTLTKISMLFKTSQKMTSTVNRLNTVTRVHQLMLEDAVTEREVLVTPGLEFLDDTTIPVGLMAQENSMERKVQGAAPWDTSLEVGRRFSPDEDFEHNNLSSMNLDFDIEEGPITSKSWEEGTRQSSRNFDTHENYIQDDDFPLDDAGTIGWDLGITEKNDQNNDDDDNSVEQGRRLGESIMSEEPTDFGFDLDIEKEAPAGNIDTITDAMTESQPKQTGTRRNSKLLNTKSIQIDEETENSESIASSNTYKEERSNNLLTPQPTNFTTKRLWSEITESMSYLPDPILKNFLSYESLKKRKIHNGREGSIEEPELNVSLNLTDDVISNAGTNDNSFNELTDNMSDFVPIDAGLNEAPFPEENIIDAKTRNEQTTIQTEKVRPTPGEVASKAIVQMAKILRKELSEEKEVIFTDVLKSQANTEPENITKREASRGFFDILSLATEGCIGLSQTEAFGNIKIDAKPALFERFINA
UniProt P40541: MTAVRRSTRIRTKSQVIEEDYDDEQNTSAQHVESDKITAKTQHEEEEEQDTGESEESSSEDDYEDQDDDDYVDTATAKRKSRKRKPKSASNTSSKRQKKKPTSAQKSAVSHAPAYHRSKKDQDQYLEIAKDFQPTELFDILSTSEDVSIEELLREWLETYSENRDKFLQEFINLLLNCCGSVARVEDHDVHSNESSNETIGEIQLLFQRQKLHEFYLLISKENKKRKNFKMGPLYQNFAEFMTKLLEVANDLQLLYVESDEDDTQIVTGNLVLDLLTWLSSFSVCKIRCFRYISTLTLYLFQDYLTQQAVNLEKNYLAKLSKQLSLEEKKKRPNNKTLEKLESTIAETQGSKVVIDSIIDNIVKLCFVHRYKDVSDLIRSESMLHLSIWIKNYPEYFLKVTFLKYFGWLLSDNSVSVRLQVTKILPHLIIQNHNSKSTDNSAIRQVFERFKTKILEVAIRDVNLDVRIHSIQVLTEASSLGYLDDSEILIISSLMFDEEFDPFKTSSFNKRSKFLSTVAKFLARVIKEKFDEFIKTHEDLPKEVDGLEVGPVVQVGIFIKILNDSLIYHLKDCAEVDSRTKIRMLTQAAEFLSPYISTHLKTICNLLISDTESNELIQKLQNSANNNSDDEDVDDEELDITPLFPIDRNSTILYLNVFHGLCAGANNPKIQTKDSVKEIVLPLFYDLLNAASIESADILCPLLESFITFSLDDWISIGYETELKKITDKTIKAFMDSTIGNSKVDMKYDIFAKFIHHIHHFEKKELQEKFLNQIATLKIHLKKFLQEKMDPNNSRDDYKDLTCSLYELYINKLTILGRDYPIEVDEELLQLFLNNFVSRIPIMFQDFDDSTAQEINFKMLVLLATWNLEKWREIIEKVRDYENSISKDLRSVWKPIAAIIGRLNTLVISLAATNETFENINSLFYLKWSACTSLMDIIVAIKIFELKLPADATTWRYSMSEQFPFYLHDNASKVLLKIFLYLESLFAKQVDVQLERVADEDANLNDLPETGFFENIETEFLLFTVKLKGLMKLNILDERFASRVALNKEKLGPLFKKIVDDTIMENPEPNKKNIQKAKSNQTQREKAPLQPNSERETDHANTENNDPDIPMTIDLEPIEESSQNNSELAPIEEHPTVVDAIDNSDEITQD
UniProt Q04002: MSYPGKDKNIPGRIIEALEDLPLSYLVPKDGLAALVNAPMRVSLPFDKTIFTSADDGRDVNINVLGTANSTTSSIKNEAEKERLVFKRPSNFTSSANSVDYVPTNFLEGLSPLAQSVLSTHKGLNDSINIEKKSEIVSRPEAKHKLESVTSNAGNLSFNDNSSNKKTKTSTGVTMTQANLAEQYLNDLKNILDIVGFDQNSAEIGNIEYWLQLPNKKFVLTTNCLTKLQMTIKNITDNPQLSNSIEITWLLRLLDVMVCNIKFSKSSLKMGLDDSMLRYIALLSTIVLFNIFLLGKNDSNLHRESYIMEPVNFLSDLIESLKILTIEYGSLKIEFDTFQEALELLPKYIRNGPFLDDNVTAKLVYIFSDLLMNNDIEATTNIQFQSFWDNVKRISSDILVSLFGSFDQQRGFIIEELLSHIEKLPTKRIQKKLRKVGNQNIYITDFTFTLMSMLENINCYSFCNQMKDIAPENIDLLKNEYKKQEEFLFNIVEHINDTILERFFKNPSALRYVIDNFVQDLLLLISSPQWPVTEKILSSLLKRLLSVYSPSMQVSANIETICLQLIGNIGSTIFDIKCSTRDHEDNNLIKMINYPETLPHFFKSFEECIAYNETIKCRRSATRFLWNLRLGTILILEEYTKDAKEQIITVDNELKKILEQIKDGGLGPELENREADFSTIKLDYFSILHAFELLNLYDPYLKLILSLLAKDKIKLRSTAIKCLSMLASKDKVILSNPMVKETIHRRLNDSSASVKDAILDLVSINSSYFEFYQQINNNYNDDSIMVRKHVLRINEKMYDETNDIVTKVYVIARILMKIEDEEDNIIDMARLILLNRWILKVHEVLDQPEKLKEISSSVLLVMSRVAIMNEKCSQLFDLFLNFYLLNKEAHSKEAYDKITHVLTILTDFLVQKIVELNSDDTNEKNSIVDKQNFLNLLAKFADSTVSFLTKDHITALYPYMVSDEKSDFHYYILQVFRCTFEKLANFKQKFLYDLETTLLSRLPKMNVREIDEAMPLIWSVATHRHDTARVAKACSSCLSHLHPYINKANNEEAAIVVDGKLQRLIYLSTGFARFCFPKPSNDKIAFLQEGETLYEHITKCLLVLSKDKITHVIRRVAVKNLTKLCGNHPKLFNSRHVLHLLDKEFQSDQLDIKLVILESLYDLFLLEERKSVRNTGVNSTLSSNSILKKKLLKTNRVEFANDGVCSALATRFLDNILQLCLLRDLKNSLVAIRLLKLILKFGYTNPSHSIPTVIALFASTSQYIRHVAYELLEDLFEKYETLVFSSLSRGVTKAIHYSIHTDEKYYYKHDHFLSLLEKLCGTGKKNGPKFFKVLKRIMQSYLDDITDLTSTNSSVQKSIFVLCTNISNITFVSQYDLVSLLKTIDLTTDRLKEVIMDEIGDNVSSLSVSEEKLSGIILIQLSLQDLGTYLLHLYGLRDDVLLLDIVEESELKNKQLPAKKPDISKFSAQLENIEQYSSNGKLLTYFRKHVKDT

Molecular target: cohesin in S. cerevisiae cells (S. cerevisiae (endogenous in yeast cells)) (UniProt P32908+P47037+Q12158+P40541)
Assay: co-IP; S. cerevisiae cell extracts in EBXG buffer (50 mM HEPES pH 8.0, 100 mM KCl, 2.5 mM MgCl2, 10% glycerol, 0.25% Triton X-100, 1 mM DTT); antibody (not named), Protein A Dynabeads

Substance: Scc2–Scc4 in S. cerevisiae cells, wild type SCC2 (from UniProt Q04002 1-1493; P40090 1-624) (complex)
- binding: binds

Substance: Scc2–Scc4 in S. cerevisiae cells, SCC2 Group III mutant (E821G/E822S/D823A) (from UniProt Q04002 1-1493; P40090 1-624) (complex)
- binding: binds

Substance: Scc2–Scc4 in S. cerevisiae cells, SCC2 Group II mutant (K788A/R792A) (from UniProt Q04002 1-1493; P40090 1-624) (complex)
- binding: binds
